{
  "source": "PubChem BioAssay AID504467",
  "about": "(National Center for Advancing Translational Sciences (NCATS), 2011)",
  "note": "In all, about 330,000 compounds went through this assay and about 7,700 (2.3%) were called active. The shares of active, inactive and inconclusive entries below differ from those in the screen. Calls follow the shape of the dose curve; as a rule, active = well fitted inhibition curve with a large enough effect; inconclusive = small, poorly fitted or top-dose-only effect, or effect the other way; inactive = flat fitted curve, though single readings scatter. Where the call is inconclusive, the potency comes from a doubtful curve fit. % is scaled to controls: 0 for no effect and ±100 for the full control effect; potency is read from the fitted curve at half-maximal effect.",
  "data": [
    {"test": "qHTS screen for small molecules that inhibit ELG1-dependent DNA repair in human embryonic kidney (HEK293T) cells expressing luciferase-tagged ELG1; also: nearly all actives have a fitted effect of over 55% in size", "conditions": "HEK293T ELG1-luciferase reporter, luminescence, 16 h, DNA damage induced by 5-fluorouridine; activity change, negative = inhibition: at 46.1 µM (top of the series)", "how_it_was_run": "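Quantitative HTS, concentration-response format. 2,000 cells/well co-treated with 5-fluorouridine and compound, 16 hr in 5% CO2 at 37 °C; ONE-Glo luminescence read after 30 min.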", "values": [
      {"smiles": "O=C(OCc1nnc(-c2ccc(Cl)cc2)o1)c1ccc(O)cc1", "Potency": "inconclusive: 23.1 µM [activator, single point]"},
      {"smiles": "Cc1ccc(NC(=O)COc2coc(CN3c4ccccc4CC3C)cc2=O)c(C)c1", "note": "(configuration not stated)", "activity change, negative = inhibition": "inactive: -25.8%"},
      {"smiles": "CCOc1ccccc1N(CC(=O)Nc1cc(OC)ccc1OC)S(=O)(=O)c1ccccc1", "Potency": "inconclusive: 23.1 µM [inhibitor, partial curve, poor fit]"},
      {"smiles": "Cc1ccc(CC(=O)Nc2ccccc2N2CCOCC2)cc1C", "activity change, negative = inhibition": "inactive: -0.0445%"},
      {"smiles": "CC(C)(C)NC(=O)CN1CCCN(C(=O)c2cccc(S(=O)(=O)N3CCc4ccccc43)c2)CC1", "activity change, negative = inhibition": "inactive: -20.1%"},
      {"smiles": "COc1ccc(OCCCC(=O)Nc2nc(C)c(C(C)=O)s2)cc1", "Potency": "inconclusive: 23.1 µM [inhibitor, single point]"},
      {"smiles": "COc1ccc(OCc2cc(C(=O)NC(C)c3csc(C)n3)no2)c(Cl)c1", "note": "(configuration not stated)", "Potency": "inconclusive: 16.4 µM [activator, partial curve]"},
      {"smiles": "Cc1ccc(OCCOC(=O)c2c(-c3ccccc3)noc2C)cc1", "Potency": "inconclusive: 25.9 µM [inhibitor, single point]"},
      {"smiles": "COc1ccc(/C=N/n2c(C3CCCCC3)n[nH]c2=S)c(OC)c1", "activity change, negative = inhibition": "inactive: -5.04%"},
      {"smiles": "COc1ccc(Nc2cc(C(=O)NCCCN3CCOCC3)c3ccccc3n2)cc1OC", "Potency": "inconclusive: 29.1 µM [inhibitor, single point]"},
      {"smiles": "CC1CCCCC1NC(=O)/C(C#N)=C/c1ccc(F)c(F)c1", "note": "(configuration not stated)", "Potency": "inconclusive: 16.4 µM [inhibitor, partial curve, poor fit]"},
      {"smiles": "Cc1cc(/C=C2\\SC(=S)N(Cc3ccco3)C2=O)c(C)n1-c1ccccc1", "Potency": "inconclusive: 6.51 µM [activator, partial curve]"},
      {"smiles": "CCOC(=O)/C(C#N)=C/Nc1ccsc1C(=O)OC", "activity change, negative = inhibition": "inactive: -4.24%"},
      {"smiles": "O=C(N/N=C\\c1cccc(Cl)c1)c1n[nH]c2c1CCCC2", "Potency": "inconclusive: 2.91 µM [activator, partial curve]"},
      {"smiles": "Brc1ccc(-c2nnc3n2-c2ccccc2CC3)cc1", "Potency": "inconclusive: 18.4 µM [activator, partial curve, poor fit]"},
      {"smiles": "O=C(Nc1cccc(S(=O)(=O)N2CCOCC2)c1)c1cc2c(s1)CCC2", "Potency": "inconclusive: 16.4 µM [inhibitor, partial curve, poor fit]"},
      {"smiles": "Nc1ncc(-c2ccccc2)n1CC1CCCO1", "note": "(configuration not stated)", "activity change, negative = inhibition": "inactive: 9.84%"},
      {"smiles": "Cc1c(C)n(C)c2ccc(C(=O)NCCCN3CCN(c4ccccc4F)CC3)cc12", "Potency": "inconclusive: 5.8 µM [inhibitor, single point]"},
      {"smiles": "Cc1cccnc1Nc1nc(-c2ccccn2)cs1", "Potency": "inconclusive: 5.8 µM [inhibitor, single point]"},
      {"smiles": "CS(=O)(=O)Nc1ccc(Cc2ccc(NS(C)(=O)=O)cc2)cc1", "activity change, negative = inhibition": "inactive: -4.06%"},
      {"smiles": "O=C(NNC(=S)NCc1ccccc1)c1cccnc1", "activity change, negative = inhibition": "inactive: -15.7%"},
      {"smiles": "O=C(c1ccco1)N1CCN(C(=O)c2ccc(-c3ccccc3Cl)o2)CC1", "Potency": "inconclusive: 5.17 µM [activator, partial curve, poor fit]"},
      {"smiles": "O=C(CNC(=O)c1ccccc1F)NCc1ccccn1", "Potency": "inconclusive: 3.66 µM [activator, partial curve, poor fit]"},
      {"smiles": "COc1cc(COc2ccc3c(C)c(Cc4ccccc4)c(=O)oc3c2)cc(OC)c1OC", "Potency": "inconclusive: 29.1 µM [inhibitor, single point]"},
      {"smiles": "CCOC(=O)c1csc(-c2ccc([N+](=O)[O-])cc2)n1", "Potency": "inconclusive: 14.6 µM [activator, partial curve, poor fit]"},
      {"smiles": "COc1ccc(C(=O)C(C)OC(=O)c2cccc(S(=O)(=O)Nc3c(C)n(C)n(-c4ccccc4)c3=O)c2)cc1", "note": "(configuration not stated)", "Potency": "inconclusive: 11.6 µM [inhibitor, partial curve]"},
      {"smiles": "CCCCn1c(N)c(N(C(=O)CSc2nnnn2-c2ccccc2)C2CCCC2)c(=O)[nH]c1=O", "Potency": "inconclusive: 31.6 µM [activator, single point]"},
      {"smiles": "Cc1ccc(OCCOc2cccc(Br)c2)c([N+](=O)[O-])n1", "Potency": "inconclusive: 14.6 µM [activator, partial curve]"},
      {"smiles": "O=C(CSc1nnc2ccc(-c3cccnc3)nn12)Nc1cccc(F)c1", "activity change, negative = inhibition": "inactive: 12.1%"},
      {"smiles": "COc1ccccc1CN(C)C(=O)c1cc(-c2cccs2)nc2ccccc12", "Potency": "inconclusive: 18.3 µM [inhibitor, partial curve]"},
      {"smiles": "COc1ccc(NC(=O)CN(C)C(=O)CNC(=O)c2cccs2)cc1", "activity change, negative = inhibition": "inactive: -6.08%"},
      {"smiles": "COc1ccc(C2CC2/C(C)=N/OC(=O)c2cccs2)cc1", "note": "(configuration not stated)", "Potency": "inconclusive: 29.1 µM [activator, partial curve, poor fit]"},
      {"smiles": "C=CCN=C(NC#N)SCC(=O)c1cccc(OC)c1", "Potency": "inconclusive: 8.2 µM [activator, partial curve]"},
      {"smiles": "CCOC(=O)N1CCN(c2c(NCc3ccc(N(C)C)cc3)c(=O)c2=O)CC1", "activity change, negative = inhibition": "inactive: 0.368%"},
      {"smiles": "Cc1c(NC(=O)COC(=O)/C=C/c2cccc(Cl)c2)c(=O)n(-c2ccccc2)n1C", "activity change, negative = inhibition": "inactive: 4.91%"},
      {"smiles": "CN(C)/C=C/C(=O)c1nnn(C2CCCCC2)c1NC1CCCCC1", "Potency": "inconclusive: 9.2 µM [inhibitor, partial curve]"},
      {"smiles": "CC(C)CCOc1cccc(OCC(=O)N(C)C2CCS(=O)(=O)C2)c1", "note": "(configuration not stated)", "Potency": "inconclusive: 25.9 µM [inhibitor, partial curve, poor fit]"},
      {"smiles": "CCOc1ccccc1NC(=O)COC(=O)C(CC(C)C)N1C(=O)C2CC=CCC2C1=O", "note": "(configuration not stated)", "Potency": "inconclusive: 25.9 µM [inhibitor, partial curve, poor fit]"},
      {"smiles": "CC1CCCCN1Cc1c(O)ccc2c(=O)c(-c3ccc(Cl)cc3)coc12", "note": "(configuration not stated)", "activity change, negative = inhibition": "inactive: 0.719%"},
      {"smiles": "Cc1ccc2nc(COc3ccc(Cl)cc3)cc(=O)n2c1", "Potency": "inconclusive: 10.3 µM [activator, partial curve]"},
      {"smiles": "O=C(Nc1ccc2nc(-c3ccccc3)oc2c1)c1ccco1", "Potency": "inconclusive: 9.2 µM [activator, partial curve]"},
      {"smiles": "Cc1ccc(O)c(C(=O)c2cnn(C(=O)c3cccc(S(=O)(=O)N(C)C)c3)c2)c1", "Potency": "inconclusive: 5.17 µM [inhibitor, single point]"},
      {"smiles": "Cc1nn(-c2ccccn2)c2c1C(c1ccsc1)C1=C(CCCC1=O)N2", "note": "(configuration not stated)", "Potency": "inconclusive: 4.61 µM [inhibitor, partial curve, poor fit]"},
      {"smiles": "CCOC(=O)C1CCN(c2ncnc3cc(OC)c(OC)cc23)CC1", "activity change, negative = inhibition": "inactive: -8.58%"},
      {"smiles": "O=C(c1ccc(F)cc1)c1cnc(Nc2ccccc2)s1", "Potency": "inconclusive: 2.59 µM [activator, full curve]"},
      {"smiles": "CCOc1ccc(NC(=O)CN(C)C(=O)C2=COCCO2)cc1OCC", "activity change, negative = inhibition": "inactive: 3.56%"},
      {"smiles": "CCc1ccc(NC2CC(=O)N(CCc3ccc(OC)c(OC)c3)C2=O)cc1", "note": "(configuration not stated)", "Potency": "inconclusive: 29.1 µM [inhibitor, single point]"},
      {"smiles": "CCOC(=O)N1CCC(NC(=O)C2CCCN(Cc3nc(-c4ccc(CC)cc4)oc3C)C2)CC1", "note": "(configuration not stated)", "Potency": "active: 2.31 µM"},
      {"smiles": "CC(NC(=O)[C@H](C)N1C(=O)N2CCc3c([nH]c4ccccc34)[C@@]2(C)C1=O)c1ccccc1", "note": "(some centres not stated)", "Potency": "inconclusive: 29.1 µM [inhibitor, single point]"},
      {"smiles": "COc1cccc(CNC2CCCc3ccccc32)c1OC", "note": "(configuration not stated)", "activity change, negative = inhibition": "inactive: 10.1%"},
      {"smiles": "C=C(C)C(=O)Nc1cccc(C2=NOC3(C2)C[C@@H](C(N)=O)N(C(=O)c2cc([N+](=O)[O-])cc([N+](=O)[O-])c2)C3)c1", "note": "(some centres not stated)", "Potency": "inconclusive: 25.9 µM [inhibitor, single point]"},
      {"smiles": "COc1ccc(C2CC(c3ccccc3)=NN2c2ccc(N)cc2)cc1", "note": "(configuration not stated)", "activity change, negative = inhibition": "inactive: -22.4%"},
      {"smiles": "CCN(CC)S(=O)(=O)c1ccc(-c2nnc(SCC(=O)c3ccc(OC)cc3)o2)cc1", "Potency": "inconclusive: 2.31 µM [inhibitor, partial curve, poor fit]"},
      {"smiles": "COc1ccccc1C(=O)COC(=O)Cc1ccccc1F", "Potency": "inconclusive: 20.6 µM [activator, single point]"},
      {"smiles": "CCSc1nc2sc3c(c2c2[n+]1CC(CBr)O2)CCCC3", "note": "(configuration not stated)", "Potency": "inconclusive: 14.6 µM [activator, partial curve, poor fit]"},
      {"smiles": "CC1(C)Cc2c(cnn2-c2ccc(F)cc2)C(NC(=O)C2=NNC(=O)CC2)C1", "note": "(configuration not stated)", "Potency": "inconclusive: 20.6 µM [activator, single point]"},
      {"smiles": "Cc1cc(C)c(S(=O)(=O)N2CCCC(C(=O)NCc3cccnc3)C2)c(C)c1", "note": "(configuration not stated)", "Potency": "inconclusive: 23.1 µM [inhibitor, partial curve, poor fit]"},
      {"smiles": "Cc1ccnc2nc(C(=O)Nc3nnc(-c4ccccc4)o3)nn12", "Potency": "inconclusive: 20.6 µM [activator, partial curve]"},
      {"smiles": "COc1cc2c(cc1NC(=O)c1cc(-c3ccncc3)nc3ccccc13)oc1ccccc12", "activity change, negative = inhibition": "inactive: -29.1%"},
      {"smiles": "CN(C)C(=O)CCc1ccc2c3c([nH]c2c1)[C@]1(CCc2ccccc2)[C@@H](C(=O)N2CCCCC2)C[C@H](CC(=O)NCc2ccco2)C(=O)N1CC3", "activity change, negative = inhibition": "inactive: 11.7%"},
      {"smiles": "Cc1ccc(O)c(Nc2ncnc3ccc([N+](=O)[O-])cc23)c1", "Potency": "active: 13 µM"},
      {"smiles": "COc1ccc(S(=O)(=O)N2CCCCCC2)cc1NC(=O)CN1C(=O)NC(C)(c2ccccc2)C1=O", "note": "(configuration not stated)", "Potency": "inconclusive: 20.6 µM [inhibitor, partial curve]"},
      {"smiles": "Cc1ccc(Cl)cc1Nc1nc(-c2cccnc2)cs1", "Potency": "inconclusive: 23.1 µM [inhibitor, single point]"},
      {"smiles": "Cc1ccc(N2C(=O)C3C4C=CC(CNC(=S)N5CCN(c6cccc(C)c6)C(C)C5)(O4)C3C2=O)cc1", "note": "(configuration not stated)", "activity change, negative = inhibition": "inactive: 3.2%"},
      {"smiles": "O=C(c1ccco1)C(O)c1ccco1", "note": "(configuration not stated)", "Potency": "inconclusive: 0.82 µM [activator, single point]"},
      {"smiles": "O=C(NCCCN1CCOCC1)c1sc2cc([N+](=O)[O-])ccc2c1Cl", "activity change, negative = inhibition": "inactive: 4.89%"},
      {"smiles": "CN(C)CCNc1nc(-c2ccco2)c2c(c1C#N)CC(C)(C)OC2", "activity change, negative = inhibition": "inactive: 2.49%"}
    ]}
  ]
}
